Values from PubChem BioAssay AID1259254 (NCATS, 2017).
In all, the deposit lists about 59,000 reagents; this is an unselected part. Of all reagents, about 1,550 (2.6%) got an active call. 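G2 share is only a proxy for re-replication; each gene was hit by three separate siRNAs, and active genes were retested.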 The numbers tell different reagents against one gene apart. Further read-outs or replicates are left out here. The record does not give: the amount of reagent.

- Assay: 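Genome-wide screen for genes that prevent DNA re-replication in cancer cells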 (primary screen)
- System: human HCT116 colorectal cancer cells
- Reagent: single siRNA against human genes
- Time to read-out: 3 days
- Detection: 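Nuclei stained with Hoechst and imaged; cell-cycle phase assigned by DNA content; G2 share scaled per plate, non-targeting siRNA 0%, GMNN siRNA 100%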
- Reading the numbers: G2 robust z-score and G2 cells, % of GMNN control: higher = more G2 cells, more excess DNA replication
- Hit rule: 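An siRNA counts as active if its G2 robust z-score lies at least 5 MADs above the screen median; here such calls match roughly 38% of GMNN control or more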

| gene | reagent | G2 robust z-score | G2 cells, % of GMNN control | activity call |
| --- | --- | --- | --- | --- |
| MMP19 (matrix metallopeptidase 19) | 1 | 1.82 | 15.8 | inactive |
| MMP19 (matrix metallopeptidase 19) | 2 | -0.575 | -1.08 | inactive |
| MMP19 (matrix metallopeptidase 19) | 3 | -0.738 | -2.22 | inactive |
| ZNF296 (zinc finger protein 296) | 1 | -1.2 | -5.47 | inactive |
| ZNF296 (zinc finger protein 296) | 2 | -0.676 | -1.79 | inactive |
| ZNF296 (zinc finger protein 296) | 3 | -0.861 | -3.09 | inactive |
| TNFRSF1B (TNF receptor superfamily member 1B) | 1 | -0.895 | -3.33 | inactive |
| TNFRSF1B (TNF receptor superfamily member 1B) | 2 | 0.473 | 6.3 | inactive |
| TNFRSF1B (TNF receptor superfamily member 1B) | 3 | -1.24 | -5.74 | inactive |
| ZKSCAN4 (zinc finger with KRAB and SCAN domains 4) | 1 | -0.912 | -3.45 | inactive |
| ZKSCAN4 (zinc finger with KRAB and SCAN domains 4) | 2 | 0.00118 | 2.98 | inactive |
| ZKSCAN4 (zinc finger with KRAB and SCAN domains 4) | 3 | 1.09 | 10.7 | inactive |
| HECW1 | 1 | 1.72 | 15 | inactive |
| HECW1 | 2 | -0.69 | -1.89 | inactive |
| HECW1 | 3 | -0.654 | -1.63 | inactive |
| CDK5RAP1 (CDK5RAP1 mitochondrial tRNA methylthiotransferase) | 1 | 2.35 | 19.5 | inactive |
| CDK5RAP1 (CDK5RAP1 mitochondrial tRNA methylthiotransferase) | 2 | -0.0276 | 2.77 | inactive |
| CDK5RAP1 (CDK5RAP1 mitochondrial tRNA methylthiotransferase) | 3 | 2.46 | 20.3 | inactive |
| SPAG16 (sperm associated antigen 16) | 1 | 0.673 | 7.7 | inactive |
| SPAG16 (sperm associated antigen 16) | 2 | 0.064 | 3.42 | inactive |
| SPAG16 (sperm associated antigen 16) | 3 | 0.222 | 4.53 | inactive |
| MGA (MAX dimerization protein MGA) | 1 | 0.301 | 5.09 | inactive |
| MGA (MAX dimerization protein MGA) | 2 | -1 | -4.08 | inactive |
| MGA (MAX dimerization protein MGA) | 3 | -0.886 | -3.27 | inactive |
| SHISA5 (shisa family member 5) | 1 | -0.76 | -2.38 | inactive |
| SHISA5 (shisa family member 5) | 2 | -0.504 | -0.576 | inactive |
| SHISA5 (shisa family member 5) | 3 | -0.079 | 2.41 | inactive |
| HDIP1 (HDAC and MIER1 interacting protein 1) | 1 | 0.246 | 4.7 | inactive |
| HDIP1 (HDAC and MIER1 interacting protein 1) | 2 | 0.317 | 5.2 | inactive |
| HDIP1 (HDAC and MIER1 interacting protein 1) | 3 | -0.696 | -1.93 | inactive |

Targets above whose gene name begins with S or s:
| gene | reagent | G2 robust z-score | G2 cells, % of GMNN control | activity call |
| --- | --- | --- | --- | --- |
| SPAG16 (sperm associated antigen 16) | 1 | 0.673 | 7.7 | inactive |
| SPAG16 (sperm associated antigen 16) | 2 | 0.064 | 3.42 | inactive |
| SPAG16 (sperm associated antigen 16) | 3 | 0.222 | 4.53 | inactive |
| SHISA5 (shisa family member 5) | 1 | -0.76 | -2.38 | inactive |
| SHISA5 (shisa family member 5) | 2 | -0.504 | -0.576 | inactive |
| SHISA5 (shisa family member 5) | 3 | -0.079 | 2.41 | inactive |
